# PubChem BioAssay (NCATS)
# By UniProt entry, the sequences of proteins in these tests, tags left out. Where a name states a change or a piece, a line headed by the entry shows the natural chain unless it says otherwise.
# UniProt O75469: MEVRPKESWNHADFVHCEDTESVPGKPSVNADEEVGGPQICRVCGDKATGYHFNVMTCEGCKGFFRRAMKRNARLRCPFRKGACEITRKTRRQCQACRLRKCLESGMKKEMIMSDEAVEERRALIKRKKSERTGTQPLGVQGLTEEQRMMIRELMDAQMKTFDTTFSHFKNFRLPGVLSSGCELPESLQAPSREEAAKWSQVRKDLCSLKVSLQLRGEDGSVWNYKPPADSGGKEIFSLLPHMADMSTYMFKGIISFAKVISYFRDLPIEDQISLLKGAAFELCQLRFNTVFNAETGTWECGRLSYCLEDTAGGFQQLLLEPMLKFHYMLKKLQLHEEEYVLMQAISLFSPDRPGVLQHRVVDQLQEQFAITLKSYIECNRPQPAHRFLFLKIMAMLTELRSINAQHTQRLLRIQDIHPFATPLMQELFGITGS
# The shares of active, inactive and inconclusive entries below differ from those in the screen. For part of these data: Potencies of inconclusive entries are doubtful fits and often do not repeat. The source made the active and inactive calls. Unless noted, the call rests on the fitted dose curve; in most records, active means well fitted curve in the direction sought with a large enough effect; inconclusive means small, poorly fitted or top-dose-only effect, or another doubt; inactive means no such curve, though single readings can be large; an effect the other way counts as inactive or inconclusive.
# Columns and labels:
# [1] = Quantitative High-Throughput drug screen in 47 multiple myeloma cell lines against the NCATS MIPE library collection: VP6_DJ cell viability assay (AID 1919867); further: nearly all actives have a fitted effect of over 40% in size; further: potency means the concentration at half of the fitted maximal effect
# In short: (§1)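 Cells were exposed to library compounds for 48 hours, after which ATP was measured by CellTiter-Glo. Signal was taken as median relative luminescence units.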
# [2] = Quantitative High-Throughput drug screen in 47 multiple myeloma cell lines against the NCATS MIPE library collection: UTMC2_PLB cell viability assay (AID 1919868); conditions: CellTiter-Glo ATP luminescence, 48 h; series mostly up to 45.8 µM; further: nearly all actives have a fitted effect of over 55% in size; further: potency means the concentration at half of the fitted maximal effect
# In short: as §1
# [3] = Quantitative High-Throughput drug screen in 47 multiple myeloma cell lines against the NCATS MIPE library collection: PCM6_Riken cell viability assay (AID 1919870); further: potency means the concentration at half of the fitted maximal effect; nearly all actives have a fitted effect of over 30% in size
# In short: as §1
# [4] = Quantitative High-Throughput drug screen in 47 multiple myeloma cell lines against the NCATS MIPE library collection: RPMI8226_ATCC cell viability assay (AID 1919871); conditions: RPMI8226 myeloma viability, CellTiter-Glo ATP luminescence, 48 h; series mostly up to 45.8 µM; further: nearly all actives have a fitted effect of over 30% in size; further: potency means the concentration at half of the fitted maximal effect
# In short: as §1
# [5] = Quantitative High-Throughput drug screen in 47 multiple myeloma cell lines against the NCATS MIPE library collection: OPM2_DSMZ cell viability assay (AID 1919872); further: nearly all actives have a fitted effect of over 30% in size; further: potency means the concentration at half of the fitted maximal effect
# In short: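 Inhibition of cell viability is measured here. Each line was plated at 500 cells per well, treated with MIPE 4.0 drugs, kept 48 hours at 37C, then assayed for ATP content by CellTiter-Glo luminescence.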
# [6] = Quantitative High-Throughput drug screen in 47 multiple myeloma cell lines against the NCATS MIPE library collection: KMS11_JCRBsus cell viability assay (AID 1919873); further: nearly all actives have a fitted effect of over 50% in size; further: potency means the concentration at half of the fitted maximal effect
# In short: as §1
# [7] = Quantitative High-Throughput drug screen in 47 multiple myeloma cell lines against the NCATS MIPE library collection: KMS28BM_JCRB cell viability assay (AID 1919874); conditions: CellTiter-Glo ATP, 48 h; series mostly up to 45.8 µM; further: nearly all actives have a fitted effect of over 35% in size; further: potency means the concentration at half of the fitted maximal effect
# In short: as §1
# [8] = qHTS for identification of novel therapeutic agents for treatment of microphthalmiaassociated transcription factor (MiT) renal cell carcinoma (RCC) (AID 1963991; calls by dose curve; further: potency means the concentration at half of the fitted maximal effect); conditions: TFE3-RCC UOK109 viability, CellTiter-Glo, 48 h; active = Z-AUC below -0.8 in all three lines
# In short: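 UOK109/UOK124/UOK145 (TFE3 fusions, three partners); 500 cells/well; MIPE v4.0, 1912 cpds, 11 conc.; 48 h, 37 C; CellTiter-Glo, 15 min RT; lum. Norm.: DMSO 100%, empty 0%.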
# [9] = tested on: 7G8; assay: qHTS profiling for inhibitors of Plasmodium falciparum proliferation (AID 504749); further: nearly all actives have a fitted effect of over 60% in size; further: potency means the concentration at half of the fitted maximal effect; conditions: P. falciparum in erythrocytes, SYBR Green DNA, 72 h; series mostly up to 28.7 µM
# In short: (§2)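 Each compound contacts P. falciparum-infected red blood cells for 72 h at 37 C; lysis buffer (Tris, EDTA, saponin, Triton X, SYBR Green I) is added and fluorescence measured next morning; values normalized to controls.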
# [10] = molecular target: Nuclear receptor subfamily 1 group I member 2 (Homo sapiens) (UniProt O75469); assay: Dual reporter qHTS for agonist of Pregnane X Receptor (hPXR) against the NCATS DSHEA and TCM libraries: Luminescence readout (AID 1920059)
# In short: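 hPXR-Luc HepG2 cells, 2000/well in 5% charcoal-stripped FBS medium, attached 5 h, then exposed 24 h at 37C to compounds. Viability by CellTiter-Fluor, then luciferase luminescence with ONE-Glo.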
# [11] = tested on: 3D7; assay: qHTS profiling for inhibitors of Plasmodium falciparum proliferation (AID 504749); further: nearly all actives have a fitted effect of over 60% in size; further: potency means the concentration at half of the fitted maximal effect; conditions: P. falciparum in erythrocytes, SYBR Green DNA, 72 h; series mostly up to 28.7 µM
# In short: as §2
structure (smiles),measurement,setting,value
CN(C)c1ccccc1CN1CCCN(Cc2ccccc2N(C)C)C1c1ccncc1,Potency,[1],active: 18.7 µM
same,Potency,[2],"inconclusive: 5.9 µM [cytotoxic, partial curve, poor fit]"
same,Potency,[3],"inconclusive: 20.9 µM [cytotoxic, partial curve]"
same,Potency,[4],"inconclusive: 33.2 µM [cytotoxic, single point]"
same,Potency,[5],"inconclusive: 23.5 µM [cytotoxic, single point]"
same,Potency,[6],"inconclusive: 18.7 µM [cytotoxic, partial curve, poor fit]"
same,Potency,[7],inactive
same,Potency,[8],"inconclusive: 23.5 µM [falling, partial curve]"
O=C1C(c2c(O)[nH]c3ccccc23)=Nc2ccccc21,Potency,[1],"inconclusive: 20.9 µM [cytotoxic, partial curve, poor fit]"
same,Potency,[2],inactive
same,Potency,[3],"inconclusive: 23.5 µM [cytotoxic, partial curve, poor fit]"
same,Potency,[4],"inconclusive: 4.69 µM [cytotoxic, partial curve, poor fit]"
same,Potency,[7],inactive
same,Potency,[8],"inconclusive: 2.96 µM [falling, partial curve]"
CON=C(C(=O)N[C@@H]1C(=O)N2C(C(=O)O)=C(CSC(=O)c3ccco3)CS[C@H]12)c1csc(N)n1,Potency,[1],inactive
same,Potency,[2],"inconclusive: 37.2 µM [cytotoxic, single point]"
same,Potency,[3],"inconclusive: 18.7 µM [cytotoxic, partial curve, poor fit]"
same,Potency,[4],"inconclusive: 0.235 µM [rising, full curve, poor fit]"
same,Potency,[8],"inconclusive: 33.2 µM [falling, single point]"
N#CC(c1ccc(Cl)cc1)c1c(Cl)cc(-n2ncc(=O)[nH]c2=O)cc1Cl (stereo unspecified),Potency,[1],active: 20.9 µM
same,Potency,[2],"inconclusive: 0.148 µM [cytotoxic, full curve, poor fit]"
same,Potency,[4],"inconclusive: 26.4 µM [cytotoxic, single point]"
same,Potency,[6],"inconclusive: 33.2 µM [cytotoxic, single point]"
same,Potency,[8],"inconclusive: 14.8 µM [falling, partial curve]"
same,Potency,[9],"inconclusive: 10 µM [inhibitor, single point]"
O=C(O)c1ccc(O)c2ncc(N3CCOCC3)cc12,Potency,[1],"inconclusive: 0.0935 µM [rising, full curve, poor fit]"
same,Potency,[2],"inconclusive: 37.2 µM [cytotoxic, partial curve, poor fit]"
same,Potency,[4],"inconclusive: 20.9 µM [cytotoxic, partial curve, poor fit]"
same,Potency,[6],"inconclusive: 37.2 µM [cytotoxic, single point]"
same,Potency,[7],"inconclusive: 26.4 µM [cytotoxic, single point]"
same,Potency,[8],"inconclusive: 20.9 µM [falling, single point]"
NS(=O)(=O)c1cc2c(cc1Cl)NC(C(Cl)Cl)NS2(=O)=O (stereo unspecified),Potency,[1],inactive
same,Potency,[2],"inconclusive: 0.0372 µM [rising, full curve, poor fit]"
same,Potency,[3],inconclusive: 0.001 µM
same,Potency,[6],inactive
Cc1ccc2c(=O)c3cccc(CC(=O)O)c3oc2c1C,Potency,[1],"inconclusive: 18.7 µM [rising, partial curve, poor fit]"
same,Potency,[2],"inconclusive: 20.9 µM [cytotoxic, partial curve, poor fit]"
same,Potency,[4],inactive
same,Potency,[5],"inconclusive: 0.0012 µM [cytotoxic, full curve, poor fit]"
same,Potency,[8],"inconclusive: 37.2 µM [falling, single point]"
CCOC(=O)C(C)Oc1cccc2c(=O)n(CC(=O)Nc3ccc4c(c3)OCCO4)ccc12 (stereo unspecified),Potency,[1],"inconclusive: 0.0012 µM [cytotoxic, full curve, poor fit]"
same,Potency,[2],"inconclusive: 0.0662 µM [rising, full curve, poor fit]"
same,Potency,[4],inactive
same,Potency,[5],"inconclusive: 33.2 µM [cytotoxic, single point]"
CCC1(C)CC(=O)NC1=O (stereo unspecified),Potency,[1],"inconclusive: 0.0026 µM [rising, full curve, poor fit]"
same,Potency,[2],"inconclusive: 0.296 µM [cytotoxic, full curve, poor fit]"
same,Potency,[5],"inconclusive: 6.62 µM [cytotoxic, single point]"
CC(C)[N+]1(C)[C@@H]2CC[C@H]1CC(OC(=O)C(CO)c1ccccc1)C2 (stereo partly specified),Potency,[1],active: 14.8 µM
same,Potency,[2],"inconclusive: 9.35 µM [cytotoxic, partial curve, poor fit]"
same,Potency,[3],"inconclusive: 18.7 µM [cytotoxic, single point]"
same,Potency,[5],inactive
same,Potency,[6],active: 7.43 µM
same,Potency,[8],"inconclusive: 18.7 µM [falling, partial curve]"
Cc1ccc(Nc2nccc(N(C)c3ccc4c(C)n(C)nc4c3)n2)cc1S(N)(=O)=O,Potency,[1],active: 16.6 µM
same,Potency,[2],"inconclusive: 14.8 µM [cytotoxic, partial curve, poor fit]"
same,Potency,[5],"inconclusive: 23.5 µM [cytotoxic, partial curve, poor fit]"
same,Potency,[6],"inconclusive: 2.35 µM [cytotoxic, full curve]"
same,Potency,[7],inactive
same,Potency,[8],inconclusive: 1.32 µM
CC(C)[C@H](CO)Nc1nc(Nc2cccc(Cl)c2)c2ncn(C(C)C)c2n1,Potency,[1],active: 13.2 µM
same,Potency,[2],"inconclusive: 23.5 µM [cytotoxic, partial curve, poor fit]"
same,Potency,[3],active: 16.6 µM
same,Potency,[6],active: 11.8 µM
same,Potency,[8],"inconclusive: 18.7 µM [falling, partial curve]"
N#CC(=C1Nc2ccccc2S1)c1ccnc(OCc2ccc(CN3CCOCC3)cc2)n1,Potency,[1],"inconclusive: 1.05 µM [cytotoxic, full curve, poor fit]"
same,Potency,[2],"inconclusive: 3.72 µM [cytotoxic, partial curve, poor fit]"
same,Potency,[3],"inconclusive: 1.32 µM [cytotoxic, full curve, poor fit]"
same,Potency,[5],"inconclusive: 26.4 µM [cytotoxic, single point]"
same,Potency,[7],"inconclusive: 1.18 µM [cytotoxic, full curve]"
same,Potency,[8],"inconclusive: 0.469 µM [falling, full curve]"
CC(Oc1ccc(O)cc1)(P(=O)(O)O)P(=O)(O)O,Potency,[1],inactive
same,Potency,[2],"inconclusive: 14.8 µM [cytotoxic, partial curve, poor fit]"
same,Potency,[4],inactive
same,Potency,[5],inactive
same,Potency,[7],inconclusive: 0.001 µM
O=C(O)CCNC(=O)c1ccc(N=Nc2ccc(O)c(C(=O)O)c2)cc1,Potency,[1],inactive
same,Potency,[2],"inconclusive: 37.2 µM [rising, single point]"
same,Potency,[4],inactive
same,Potency,[6],inactive
same,Potency,[7],inactive
CCc1ccc(CCOc2ccc(CC3SC(=O)NC3=O)cc2)nc1 (stereo unspecified),Potency,[1],"inconclusive: 4.69 µM [cytotoxic, full curve, poor fit]"
same,Potency,[2],"inconclusive: 0.0012 µM [cytotoxic, full curve, poor fit]"
same,Potency,[4],"inconclusive: 10.5 µM [cytotoxic, partial curve, poor fit]"
Cn1c(=O)c2c(ncn2C)n(C)c1=O,Potency,[1],inactive
same,Potency,[2],inactive
same,Potency,[5],inactive
same,Potency,[6],inactive
same,Potency,[10],inactive
same,Potency,[11],inactive
same,Potency,[9],"inconclusive: 17.8 µM [inhibitor, single point]"
CC(C)c1c(C(=O)Nc2ccccc2)c(-c2ccccc2)c(-c2ccc(F)cc2)n1CC[C@H](O)C[C@@H](O)CC(=O)O,Potency,[1],"inconclusive: 16.6 µM [cytotoxic, partial curve, poor fit]"
same,Potency,[2],"inconclusive: 18.7 µM [cytotoxic, partial curve, poor fit]"
same,Potency,[3],active: 16.6 µM
same,Potency,[5],"inconclusive: 18.7 µM [cytotoxic, partial curve]"
same,Potency,[7],"inconclusive: 7.43 µM [cytotoxic, partial curve, poor fit]"
same,Potency,[8],"inconclusive: 20.9 µM [falling, partial curve]"
CCn1c(=O)c2c(nc(C=Cc3ccc(OC)c(OC)c3)n2C)n(CC)c1=O,Potency,[1],"inconclusive: 1.32 µM [cytotoxic, full curve, poor fit]"
same,Potency,[2],inactive
same,Potency,[4],"inconclusive: 37.2 µM [cytotoxic, single point]"
same,Potency,[5],"inconclusive: 1.18 µM [cytotoxic, partial curve, poor fit]"
same,Potency,[7],inactive
same,Potency,[8],"inconclusive: 29.6 µM [falling, single point]"
CO[C@@H]1C(N(C)C(=O)c2ccccc2)C[C@H]2O[C@]1(C)n1c3ccccc3c3c4c(c5c6ccccc6n2c5c31)C(=O)NC4=O (stereo partly specified),Potency,[1],"inconclusive: 0.469 µM [cytotoxic, full curve, poor fit]"
same,Potency,[2],active: 2.64 µM
same,Potency,[3],"inconclusive: 3.72 µM [cytotoxic, full curve]"
same,Potency,[5],"inconclusive: 8.33 µM [cytotoxic, full curve]"
same,Potency,[7],"inconclusive: 2.35 µM [cytotoxic, full curve, poor fit]"
same,Potency,[8],"inconclusive: 4.18 µM [falling, full curve]"
CN(C)C(=O)COC(=O)Cc1ccc(OC(=O)c2ccc(N=C(N)N)cc2)cc1,Potency,[1],inactive
same,Potency,[2],"inconclusive: 0.469 µM [cytotoxic, full curve, poor fit]"
same,Potency,[3],"inconclusive: 3.72 µM [cytotoxic, full curve, poor fit]"
same,Potency,[6],inactive
same,Potency,[7],"inconclusive: 14.8 µM [cytotoxic, partial curve, poor fit]"
same,Potency,[8],"inconclusive: 23.5 µM [falling, partial curve]"
Nc1nc(=O)n([C@H]2CSC(CO)O2)cc1F (stereo partly specified),Potency,[1],inactive
same,Potency,[2],"inconclusive: 0.0418 µM [rising, full curve]"
same,Potency,[5],inactive
same,Potency,[6],"inconclusive: 11.8 µM [cytotoxic, single point]"
same,Potency,[7],"inconclusive: 11.8 µM [cytotoxic, single point]"
COc1ccc2ccc(=O)oc2c1CC=C(C)C,Potency,[1],"inconclusive: 0.935 µM [cytotoxic, full curve, poor fit]"
same,Potency,[2],"inconclusive: 0.296 µM [rising, full curve, poor fit]"
same,Potency,[4],"inconclusive: 11.8 µM [cytotoxic, partial curve, poor fit]"
same,Potency,[5],"inconclusive: 33.2 µM [cytotoxic, single point]"
same,Potency,[6],"inconclusive: 29.6 µM [cytotoxic, single point]"
same,Potency,[7],"inconclusive: 37.2 µM [cytotoxic, single point]"
same,Potency,[8],"inconclusive: 11.8 µM [falling, full curve]"

# Random excerpt: four entries already listed, in no set order.
structure (smiles),measurement,setting,value
Cc1ccc2c(=O)c3cccc(CC(=O)O)c3oc2c1C,Potency,[4],inactive
N#CC(c1ccc(Cl)cc1)c1c(Cl)cc(-n2ncc(=O)[nH]c2=O)cc1Cl (stereo unspecified),Potency,[6],"inconclusive: 33.2 µM [cytotoxic, single point]"
CC(C)[C@H](CO)Nc1nc(Nc2cccc(Cl)c2)c2ncn(C(C)C)c2n1,Potency,[1],active: 13.2 µM
CC(C)[N+]1(C)[C@@H]2CC[C@H]1CC(OC(=O)C(CO)c1ccccc1)C2 (stereo partly specified),Potency,[3],"inconclusive: 18.7 µM [cytotoxic, single point]"
